Assay results reported in publication doi:10.1101/220111.
Results are given in words; binding and its absence hold for the method and conditions named. Binding seen in cells or lysates may run through a third protein. Some results given as binding are weak or reduced against the parent protein; the word gives no strength. Where a sequence is shown, tags or fusion partners need not be part of it.

Sequences of proteins named here, by UniProt entry; tags and fusion partners are left off.
UniProt E9P860: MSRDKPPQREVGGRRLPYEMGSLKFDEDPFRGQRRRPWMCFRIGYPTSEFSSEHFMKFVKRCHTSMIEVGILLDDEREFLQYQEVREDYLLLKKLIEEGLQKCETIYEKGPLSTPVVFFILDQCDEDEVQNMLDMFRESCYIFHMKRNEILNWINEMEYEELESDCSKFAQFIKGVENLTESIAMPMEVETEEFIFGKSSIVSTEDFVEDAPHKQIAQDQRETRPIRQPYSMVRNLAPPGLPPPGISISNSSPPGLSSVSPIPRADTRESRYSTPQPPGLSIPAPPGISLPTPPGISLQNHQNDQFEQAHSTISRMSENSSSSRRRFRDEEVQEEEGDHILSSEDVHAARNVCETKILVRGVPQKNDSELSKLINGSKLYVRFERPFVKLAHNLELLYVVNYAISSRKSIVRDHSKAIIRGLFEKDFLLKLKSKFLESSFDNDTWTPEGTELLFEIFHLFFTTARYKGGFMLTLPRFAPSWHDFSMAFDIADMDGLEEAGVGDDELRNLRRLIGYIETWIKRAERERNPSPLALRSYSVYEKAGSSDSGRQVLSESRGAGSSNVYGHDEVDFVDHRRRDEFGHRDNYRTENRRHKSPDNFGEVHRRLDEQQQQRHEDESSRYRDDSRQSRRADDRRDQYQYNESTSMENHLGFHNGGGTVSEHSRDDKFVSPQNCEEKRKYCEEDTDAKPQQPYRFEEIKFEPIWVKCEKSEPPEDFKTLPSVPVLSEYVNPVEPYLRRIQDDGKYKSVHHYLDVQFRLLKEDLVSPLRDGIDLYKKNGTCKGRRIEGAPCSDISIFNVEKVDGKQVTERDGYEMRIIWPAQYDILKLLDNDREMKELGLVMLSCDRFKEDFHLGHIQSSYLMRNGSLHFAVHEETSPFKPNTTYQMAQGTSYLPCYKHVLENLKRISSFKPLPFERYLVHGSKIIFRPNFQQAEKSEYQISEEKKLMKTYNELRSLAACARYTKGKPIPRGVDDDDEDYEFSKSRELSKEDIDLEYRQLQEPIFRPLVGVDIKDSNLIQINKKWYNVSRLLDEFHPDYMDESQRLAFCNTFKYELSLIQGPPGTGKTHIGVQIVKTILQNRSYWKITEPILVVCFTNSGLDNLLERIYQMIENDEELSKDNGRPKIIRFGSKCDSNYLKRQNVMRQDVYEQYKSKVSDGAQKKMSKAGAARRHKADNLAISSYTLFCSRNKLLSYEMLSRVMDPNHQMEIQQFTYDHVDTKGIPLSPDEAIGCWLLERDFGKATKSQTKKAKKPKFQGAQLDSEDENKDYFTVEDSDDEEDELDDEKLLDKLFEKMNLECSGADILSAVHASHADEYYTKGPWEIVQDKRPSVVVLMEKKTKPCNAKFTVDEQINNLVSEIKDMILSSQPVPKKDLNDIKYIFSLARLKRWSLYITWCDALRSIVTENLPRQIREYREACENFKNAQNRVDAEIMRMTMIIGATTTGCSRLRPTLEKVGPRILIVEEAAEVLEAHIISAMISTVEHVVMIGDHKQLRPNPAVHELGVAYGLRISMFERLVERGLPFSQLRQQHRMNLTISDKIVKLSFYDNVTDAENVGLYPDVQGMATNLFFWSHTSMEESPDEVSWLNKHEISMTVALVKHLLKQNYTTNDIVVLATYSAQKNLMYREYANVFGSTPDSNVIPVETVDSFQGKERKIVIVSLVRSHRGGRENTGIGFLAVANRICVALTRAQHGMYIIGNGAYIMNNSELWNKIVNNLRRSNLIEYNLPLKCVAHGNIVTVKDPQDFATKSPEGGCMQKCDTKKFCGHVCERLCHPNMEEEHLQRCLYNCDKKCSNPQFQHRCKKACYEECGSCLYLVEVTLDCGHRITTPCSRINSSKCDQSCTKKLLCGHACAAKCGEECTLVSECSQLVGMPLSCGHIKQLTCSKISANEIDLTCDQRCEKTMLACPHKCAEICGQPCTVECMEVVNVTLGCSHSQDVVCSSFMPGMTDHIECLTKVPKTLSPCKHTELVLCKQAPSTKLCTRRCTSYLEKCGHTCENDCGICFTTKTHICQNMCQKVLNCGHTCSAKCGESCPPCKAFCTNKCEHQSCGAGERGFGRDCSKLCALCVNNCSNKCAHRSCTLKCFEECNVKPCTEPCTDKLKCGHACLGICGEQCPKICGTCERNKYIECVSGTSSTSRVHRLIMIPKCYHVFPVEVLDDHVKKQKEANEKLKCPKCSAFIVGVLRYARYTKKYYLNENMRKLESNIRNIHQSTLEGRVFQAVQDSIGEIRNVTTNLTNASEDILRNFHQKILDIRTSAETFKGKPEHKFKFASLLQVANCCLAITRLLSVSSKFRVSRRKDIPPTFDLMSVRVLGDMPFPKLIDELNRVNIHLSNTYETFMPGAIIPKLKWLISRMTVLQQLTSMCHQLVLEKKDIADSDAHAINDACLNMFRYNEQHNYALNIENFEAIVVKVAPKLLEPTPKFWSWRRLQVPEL

Target: T1, 3xFLAG∷WAGO-4 (C. elegans) (UniProt O62275)
T1 sequence: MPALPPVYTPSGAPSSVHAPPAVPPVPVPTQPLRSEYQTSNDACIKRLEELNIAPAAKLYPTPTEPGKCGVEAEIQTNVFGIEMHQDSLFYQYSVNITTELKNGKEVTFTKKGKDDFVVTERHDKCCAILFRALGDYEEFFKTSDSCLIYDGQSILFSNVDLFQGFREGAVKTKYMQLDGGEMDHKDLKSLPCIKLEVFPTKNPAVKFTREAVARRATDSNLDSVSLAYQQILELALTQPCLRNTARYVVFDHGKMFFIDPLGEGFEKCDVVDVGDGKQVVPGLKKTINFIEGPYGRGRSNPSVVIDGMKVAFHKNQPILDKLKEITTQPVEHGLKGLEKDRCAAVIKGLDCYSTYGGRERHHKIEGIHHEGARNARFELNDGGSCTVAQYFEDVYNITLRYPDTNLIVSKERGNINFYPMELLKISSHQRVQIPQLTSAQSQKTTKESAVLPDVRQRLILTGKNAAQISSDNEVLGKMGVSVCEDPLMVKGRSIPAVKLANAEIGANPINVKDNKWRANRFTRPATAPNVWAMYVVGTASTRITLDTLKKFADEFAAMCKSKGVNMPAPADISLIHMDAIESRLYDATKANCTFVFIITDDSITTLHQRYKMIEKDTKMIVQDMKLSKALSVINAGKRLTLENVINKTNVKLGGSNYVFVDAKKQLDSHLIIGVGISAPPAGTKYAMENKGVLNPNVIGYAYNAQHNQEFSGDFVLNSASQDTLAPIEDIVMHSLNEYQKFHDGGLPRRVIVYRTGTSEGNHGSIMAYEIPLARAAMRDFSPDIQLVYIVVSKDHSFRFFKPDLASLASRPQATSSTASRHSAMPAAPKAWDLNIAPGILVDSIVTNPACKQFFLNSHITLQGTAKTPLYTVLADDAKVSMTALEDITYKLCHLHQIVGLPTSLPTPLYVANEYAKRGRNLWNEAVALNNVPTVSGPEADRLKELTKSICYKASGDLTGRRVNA
Test: co-IP

HA∷ZNFX-1 (from UniProt E9P860 1-2443)
binding: binds

B1: HA∷HRDE-1 (protein, UniProt Q09249 1-1032)
chain: MADLLDKIMGSSSSNRIPKRDNRMNQDKDEPTSKRSAPMFSTPKSTTPIGRDSFATMDTMNVQMNMFPVDIKDMPHKIQRFQVDVIVCSSNGKQINANLGVLAAKGDVNSHNRRLAQYYIMRTVHDKLLVKFSGKSHHFLAYDCAATLYLPEGVYTGDDQEEVTLTIDDFPKEEWKFVSKLSRRKDDSYLVVLKPAGFVYTQGEVAQEEANRMELTRIIEIVTSQKLNNEDYLQFGNATFPRLSPPHSEPDAISEIRSGFAKVSRLSQNGGGKAFMTVDTKISPFYKDTSVIKFSSNKLSEMKGGGGGRGGYGRSDSRDSRGGYRGGRSDSRDFRGVYGNRGGNDRYRDESRGRRDMYDSRRDSGSSNGADYSPSDAAELEHAFGERGNTKRCIEEALKGLDVECTHLKGNLIRVSSIAENNAENTSFMMKDDKGEREVTVAEYFLLQYNIKLKYPRLPLVVSKRFKHESFFPMELLRIAPGQRIKVNKMSPTVQSAMTGRNASMPQHHVKLVQDILRDNLKLEQNKYMDAFGIKLMSTEPIQMTAKLLPPAQIKFKGQTYMPDMSRPAFRTQDKFVEPARIRKIGIVVFDNCIQMRQAEDFCDKLSNFCRDNGITVEKDSRDWSIRELNSSDSVAIQNLMKKWLDDRVDILVGIAREKKPDVHDILKYFEESIGLQTIQLCQQTVDKMMGGQGGRQTIDNVMRKFNLKCGGTNFFVEIPNAVRGKAVCSNNETLRKKLLEHVQFIGFEISHGASRTLFDRSRSQMDGEPSVVGVSYSLTNSTQLGGFTYLQTQKEYKLQKLDEFFPKCVRSYKEHSKTLPTRIVIYRVGAGEGNFNRVKEEVEEMRRTFDKIQPGYRPHLVVIIAQRASHARVFPSCISGNRATDQNIPSGTCVENVLTSYGYDEFILSSQTPLIGTVRPCKYTILVNDAKWSKNELMHLTYFRAFGHQVSYQPPSVPDVLYAAENLAKRGRNNYKIHQRYVNLQAVENRIIKDHSELINEDMREELAAAIVDEMSVAMNGMTIPKRNFWA
binding: no binding
